The other results are listed elsewhere or left out.
Tests used:
Assay in all cases: log2 fold change, soluble protein after heating vs DMSO (PISA); higher = thermal stabilisation; K562 lysate, 10 uM; active = over 0.2 and 3.5 SD of the protein, either way, in both replicates (recomputed)
[1] = compound: C1=CC=C(C=C1)[C@H](COC2=CC3=C(C=C2)NC(=O)N3)NC(=O)C4=CC=CN(C4=O)CC5=CC(=C(C=C5)F)F
Summary of the method: (§1)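 Soluble protein was defined as the supernatant remaining after 21,000xg for 90 min, following pooling of heated aliquots and adjustment to 0.5% NP-40 at 4°C. Before that, crude K562 extract at 1 mg/mL protein in PBS pH 7.4 with 1 mM MgCl2 was treated with 10 μM compound for 30 min and heated for 3 min across 48°C-58°C. Quantification used TMTpro 16plex LC-MS/MS with channel sums equalised, and values are log-two fold changes in thermal stability relative to solvent controls from duplicates.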

Protein sequences, listed by entry. Tags and fused reporters are not part of them. Lines headed by an entry give the natural chain unless they say otherwise; changes in a name come on top.
UniProt Q6P1X5, whole entry, looked up: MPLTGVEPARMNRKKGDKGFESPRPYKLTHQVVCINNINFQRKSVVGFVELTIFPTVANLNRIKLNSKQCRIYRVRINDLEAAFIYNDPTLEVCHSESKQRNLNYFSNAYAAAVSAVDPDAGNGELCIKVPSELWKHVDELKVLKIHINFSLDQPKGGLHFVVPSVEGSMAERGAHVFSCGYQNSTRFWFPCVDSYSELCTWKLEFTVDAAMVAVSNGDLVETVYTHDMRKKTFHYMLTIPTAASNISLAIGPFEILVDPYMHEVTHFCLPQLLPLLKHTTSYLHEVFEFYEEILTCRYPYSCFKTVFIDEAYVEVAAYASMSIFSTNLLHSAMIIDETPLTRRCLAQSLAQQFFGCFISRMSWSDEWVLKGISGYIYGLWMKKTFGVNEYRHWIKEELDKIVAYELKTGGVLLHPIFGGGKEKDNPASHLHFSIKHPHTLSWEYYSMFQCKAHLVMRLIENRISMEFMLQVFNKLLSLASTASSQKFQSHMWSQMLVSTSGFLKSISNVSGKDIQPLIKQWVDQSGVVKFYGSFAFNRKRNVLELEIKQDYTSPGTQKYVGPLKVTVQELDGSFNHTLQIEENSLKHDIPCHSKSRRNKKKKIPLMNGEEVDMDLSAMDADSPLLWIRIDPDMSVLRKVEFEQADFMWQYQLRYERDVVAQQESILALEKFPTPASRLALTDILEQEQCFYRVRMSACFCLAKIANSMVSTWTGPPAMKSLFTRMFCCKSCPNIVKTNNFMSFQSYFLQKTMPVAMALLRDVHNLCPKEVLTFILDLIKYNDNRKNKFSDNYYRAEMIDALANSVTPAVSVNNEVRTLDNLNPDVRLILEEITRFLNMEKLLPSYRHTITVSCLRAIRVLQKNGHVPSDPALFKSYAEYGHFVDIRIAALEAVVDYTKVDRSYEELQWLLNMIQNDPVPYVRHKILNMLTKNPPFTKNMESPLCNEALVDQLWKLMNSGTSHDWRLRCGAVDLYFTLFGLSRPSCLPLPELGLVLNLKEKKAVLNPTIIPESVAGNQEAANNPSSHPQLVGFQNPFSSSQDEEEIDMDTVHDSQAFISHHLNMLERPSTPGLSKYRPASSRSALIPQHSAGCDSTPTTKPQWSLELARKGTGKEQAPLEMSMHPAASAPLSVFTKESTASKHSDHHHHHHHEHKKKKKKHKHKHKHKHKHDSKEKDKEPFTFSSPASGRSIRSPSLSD
UniProt O00268, whole entry, looked up: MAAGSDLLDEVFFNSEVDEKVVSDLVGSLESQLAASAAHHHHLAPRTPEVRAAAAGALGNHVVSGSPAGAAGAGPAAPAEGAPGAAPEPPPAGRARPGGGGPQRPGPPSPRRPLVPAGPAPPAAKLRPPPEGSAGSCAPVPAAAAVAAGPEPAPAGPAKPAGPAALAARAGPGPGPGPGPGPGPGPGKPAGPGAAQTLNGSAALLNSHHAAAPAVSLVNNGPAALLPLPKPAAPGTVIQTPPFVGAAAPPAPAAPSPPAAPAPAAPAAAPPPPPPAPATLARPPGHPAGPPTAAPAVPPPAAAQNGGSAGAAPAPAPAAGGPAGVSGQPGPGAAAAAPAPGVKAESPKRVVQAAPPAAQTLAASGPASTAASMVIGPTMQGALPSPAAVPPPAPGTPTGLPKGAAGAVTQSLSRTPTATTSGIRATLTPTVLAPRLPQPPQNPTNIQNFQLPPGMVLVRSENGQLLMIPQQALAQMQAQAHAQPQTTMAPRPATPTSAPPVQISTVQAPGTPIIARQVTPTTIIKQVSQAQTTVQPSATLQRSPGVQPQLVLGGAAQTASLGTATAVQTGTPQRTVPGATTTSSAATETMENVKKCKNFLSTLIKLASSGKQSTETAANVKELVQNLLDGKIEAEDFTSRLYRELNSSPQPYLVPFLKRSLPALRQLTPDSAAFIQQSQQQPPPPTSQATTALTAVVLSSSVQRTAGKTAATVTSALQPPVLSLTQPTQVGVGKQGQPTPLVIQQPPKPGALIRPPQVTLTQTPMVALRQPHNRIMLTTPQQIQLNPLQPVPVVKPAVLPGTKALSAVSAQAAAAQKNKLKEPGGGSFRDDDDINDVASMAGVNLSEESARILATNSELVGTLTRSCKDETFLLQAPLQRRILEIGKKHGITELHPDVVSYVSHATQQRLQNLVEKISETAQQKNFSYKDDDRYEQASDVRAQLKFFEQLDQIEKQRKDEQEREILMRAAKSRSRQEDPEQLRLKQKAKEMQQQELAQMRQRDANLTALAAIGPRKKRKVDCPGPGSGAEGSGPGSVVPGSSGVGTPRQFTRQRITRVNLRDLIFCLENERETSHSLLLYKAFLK
UniProt O15400: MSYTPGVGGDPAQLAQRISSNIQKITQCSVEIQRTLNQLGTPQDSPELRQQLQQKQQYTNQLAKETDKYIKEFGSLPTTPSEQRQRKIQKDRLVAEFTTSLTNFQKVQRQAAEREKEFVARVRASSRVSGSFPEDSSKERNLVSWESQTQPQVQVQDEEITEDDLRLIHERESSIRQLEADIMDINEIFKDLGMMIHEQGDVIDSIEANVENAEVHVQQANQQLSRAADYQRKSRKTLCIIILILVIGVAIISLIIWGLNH
UniProt Q92804: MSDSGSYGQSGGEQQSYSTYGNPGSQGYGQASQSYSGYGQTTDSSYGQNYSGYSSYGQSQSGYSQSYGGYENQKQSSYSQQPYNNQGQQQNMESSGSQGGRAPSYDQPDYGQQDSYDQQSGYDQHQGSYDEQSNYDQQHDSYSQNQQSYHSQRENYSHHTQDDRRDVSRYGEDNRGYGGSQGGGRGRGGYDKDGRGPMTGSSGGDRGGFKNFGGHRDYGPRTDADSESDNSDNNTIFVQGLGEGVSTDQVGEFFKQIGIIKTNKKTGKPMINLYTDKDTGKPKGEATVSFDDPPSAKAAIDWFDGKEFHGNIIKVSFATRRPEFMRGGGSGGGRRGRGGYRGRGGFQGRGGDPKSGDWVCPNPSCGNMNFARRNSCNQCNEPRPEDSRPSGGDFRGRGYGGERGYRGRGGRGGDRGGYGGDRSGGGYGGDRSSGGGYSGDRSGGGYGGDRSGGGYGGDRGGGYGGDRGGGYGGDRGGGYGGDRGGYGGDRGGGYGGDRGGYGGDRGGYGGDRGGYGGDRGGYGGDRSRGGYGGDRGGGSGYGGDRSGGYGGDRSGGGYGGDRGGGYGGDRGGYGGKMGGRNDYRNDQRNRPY
UniProt Q8WXE9: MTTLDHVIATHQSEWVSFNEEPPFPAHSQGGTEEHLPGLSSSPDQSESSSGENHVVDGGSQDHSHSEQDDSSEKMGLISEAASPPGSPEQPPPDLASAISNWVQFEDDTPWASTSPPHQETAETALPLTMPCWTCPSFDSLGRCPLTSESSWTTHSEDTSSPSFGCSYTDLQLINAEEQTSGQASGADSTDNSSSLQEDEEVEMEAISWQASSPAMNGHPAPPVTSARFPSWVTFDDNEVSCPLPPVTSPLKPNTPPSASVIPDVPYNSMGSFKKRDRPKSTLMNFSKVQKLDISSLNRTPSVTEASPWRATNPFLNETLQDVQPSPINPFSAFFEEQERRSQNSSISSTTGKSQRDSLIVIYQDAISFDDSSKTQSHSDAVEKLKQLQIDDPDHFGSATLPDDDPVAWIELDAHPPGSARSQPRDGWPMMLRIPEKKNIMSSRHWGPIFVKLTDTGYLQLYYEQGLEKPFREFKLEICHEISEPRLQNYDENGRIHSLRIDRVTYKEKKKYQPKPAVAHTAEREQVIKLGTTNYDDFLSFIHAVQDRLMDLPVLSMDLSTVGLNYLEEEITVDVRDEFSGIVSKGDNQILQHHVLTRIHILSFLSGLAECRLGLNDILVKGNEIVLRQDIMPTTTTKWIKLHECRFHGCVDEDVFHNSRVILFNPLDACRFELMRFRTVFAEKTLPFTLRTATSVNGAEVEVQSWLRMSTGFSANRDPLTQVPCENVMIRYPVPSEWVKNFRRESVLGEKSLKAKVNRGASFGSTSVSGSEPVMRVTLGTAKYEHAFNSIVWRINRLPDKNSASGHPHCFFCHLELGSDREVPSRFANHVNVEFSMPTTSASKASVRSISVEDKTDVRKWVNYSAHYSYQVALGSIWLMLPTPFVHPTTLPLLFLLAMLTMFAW
UniProt P27105: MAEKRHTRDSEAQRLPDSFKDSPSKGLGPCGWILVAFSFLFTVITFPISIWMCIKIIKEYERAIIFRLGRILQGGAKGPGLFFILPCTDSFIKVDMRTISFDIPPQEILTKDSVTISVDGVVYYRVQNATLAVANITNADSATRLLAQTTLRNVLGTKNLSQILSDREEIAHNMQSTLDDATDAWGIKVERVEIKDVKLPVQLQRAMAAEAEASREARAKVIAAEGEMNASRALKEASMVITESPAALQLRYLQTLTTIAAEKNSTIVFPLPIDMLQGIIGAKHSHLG
UniProt Q9P2R7: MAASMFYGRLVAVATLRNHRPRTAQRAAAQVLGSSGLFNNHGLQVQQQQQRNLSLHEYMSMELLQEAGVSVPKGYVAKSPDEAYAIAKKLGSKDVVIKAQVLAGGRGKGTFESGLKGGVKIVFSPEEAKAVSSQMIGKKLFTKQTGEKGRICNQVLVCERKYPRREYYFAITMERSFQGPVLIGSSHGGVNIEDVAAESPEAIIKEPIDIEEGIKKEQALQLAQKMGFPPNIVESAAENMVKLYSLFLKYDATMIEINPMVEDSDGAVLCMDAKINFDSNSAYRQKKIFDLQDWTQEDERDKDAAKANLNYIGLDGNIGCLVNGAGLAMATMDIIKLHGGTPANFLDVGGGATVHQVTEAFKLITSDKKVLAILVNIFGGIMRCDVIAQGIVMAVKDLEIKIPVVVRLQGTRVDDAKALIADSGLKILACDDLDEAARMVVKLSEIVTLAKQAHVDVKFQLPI
UniProt Q8NEM7: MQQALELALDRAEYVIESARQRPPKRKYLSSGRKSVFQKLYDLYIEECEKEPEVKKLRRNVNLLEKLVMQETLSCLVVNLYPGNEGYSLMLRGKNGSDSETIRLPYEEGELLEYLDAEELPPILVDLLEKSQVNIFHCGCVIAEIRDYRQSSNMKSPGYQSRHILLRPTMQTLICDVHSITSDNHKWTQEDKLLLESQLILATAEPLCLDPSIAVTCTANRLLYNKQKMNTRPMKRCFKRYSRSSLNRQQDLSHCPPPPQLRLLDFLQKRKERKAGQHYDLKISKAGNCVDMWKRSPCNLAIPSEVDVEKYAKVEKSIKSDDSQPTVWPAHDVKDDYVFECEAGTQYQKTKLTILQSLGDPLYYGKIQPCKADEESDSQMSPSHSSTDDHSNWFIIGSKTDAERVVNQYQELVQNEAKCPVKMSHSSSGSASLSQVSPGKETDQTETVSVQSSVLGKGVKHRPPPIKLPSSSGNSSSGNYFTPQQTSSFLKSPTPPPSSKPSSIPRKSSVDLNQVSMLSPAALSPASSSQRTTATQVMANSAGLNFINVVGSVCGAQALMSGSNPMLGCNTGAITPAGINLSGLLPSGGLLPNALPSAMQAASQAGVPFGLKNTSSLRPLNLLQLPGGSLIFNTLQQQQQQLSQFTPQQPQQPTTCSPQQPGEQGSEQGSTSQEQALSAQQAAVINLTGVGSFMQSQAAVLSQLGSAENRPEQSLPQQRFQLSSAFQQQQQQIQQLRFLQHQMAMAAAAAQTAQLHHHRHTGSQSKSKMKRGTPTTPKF
UniProt Q96SI9: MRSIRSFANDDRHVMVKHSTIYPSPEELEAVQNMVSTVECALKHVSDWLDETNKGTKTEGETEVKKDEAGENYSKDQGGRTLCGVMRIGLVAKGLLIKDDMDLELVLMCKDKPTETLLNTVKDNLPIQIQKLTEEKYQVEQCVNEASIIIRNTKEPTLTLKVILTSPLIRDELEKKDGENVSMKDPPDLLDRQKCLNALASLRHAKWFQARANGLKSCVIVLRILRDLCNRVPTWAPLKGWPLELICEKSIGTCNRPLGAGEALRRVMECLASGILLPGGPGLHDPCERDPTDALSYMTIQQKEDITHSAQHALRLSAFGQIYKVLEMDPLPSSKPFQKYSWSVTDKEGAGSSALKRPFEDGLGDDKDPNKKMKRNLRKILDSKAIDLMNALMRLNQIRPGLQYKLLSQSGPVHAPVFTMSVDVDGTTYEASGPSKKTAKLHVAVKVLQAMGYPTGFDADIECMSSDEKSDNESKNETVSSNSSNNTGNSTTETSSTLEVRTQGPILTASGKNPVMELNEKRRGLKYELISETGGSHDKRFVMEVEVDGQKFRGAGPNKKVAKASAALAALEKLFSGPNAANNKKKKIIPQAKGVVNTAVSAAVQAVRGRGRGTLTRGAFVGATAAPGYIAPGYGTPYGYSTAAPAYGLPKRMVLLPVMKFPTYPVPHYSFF

[2] = compound: CC1=C(SC2=C1C(=N[C@H](C3=NN=C(N32)C)CC(=O)N)C4=CC=C(C=C4)Cl)C
Summary of the method: as §1

[3] = compound: CC1=C2C(=CC=C1)N=C(N(C2=O)C3=CC=CC=C3C)CN4C=NC5=C(N=CN=C54)N
Summary of the method: as §1

[4] = compound: Cc1sc2c(c1C)C(c1ccc(Cl)cc1)=N[C@@H](CC(=O)OC(C)(C)C)c1nnc(C)n1-2
Summary of the method: as §1

[5] = compound: c1ccc([C@@H]2C[C@H]2NC2CCNCC2)cc1
Summary of the method: as §1

Measured: log2 fold change

TAF2 (UniProt Q6P1X5)
inactive: [1] -0.104 | [2] 0.006 | [3] -0.06 | [4] 0.068 | [5] 0.035

TAF4 (UniProt O00268)
inactive: [1] -0.052 | [2] 0.028 | [3] 0.003 | [4] -0.024

STX7 (UniProt O15400)
inactive: [1] 0.032 | [2] 0.008 | [3] -0.019 | [4] 0.006 | [5] -0.008

TAF15 (UniProt Q92804)
inactive: [1] 0.024 | [2] 0.004 | [3] -0.019 | [4] -0.021 | [5] 0.008

SUPT5H isoform 2 (UniProt O00267)
inactive: [1] -0.225 | [2] 0.023 | [3] 0.073 | [4] -0.065

TACC3 (UniProt Q9Y6A5)
inactive: [1] 0.009 | [2] 0.008 | [3] -0.022 | [4] 0 | [5] -0.019

STON2 isoform 3 (UniProt Q8WXE9)
inactive: [1] -0.059 | [2] 0.052 | [3] 0.07 | [4] 0.017 | [5] 0.053

STOM (UniProt P27105)
inactive: [1] 0.008 | [2] 0.043 | [3] -0.011 | [4] -0.078 | [5] -0.061

STXBP3 (UniProt O00186)
inactive: [1] -0.03 | [2] -0.046 | [3] 0.011 | [4] -0.026 | [5] 0.015

SUCLA2 (UniProt Q9P2R7)
inactive: [1] -0.005 | [2] -0.015 | [3] 0.051 | [4] 0.002 | [5] -0.013

SUPT20H isoform 3 (UniProt Q8NEM7)
inactive: [1] -0.111 | [2] 0.031 | [3] 0.008 | [4] -0.145

Reprinted from the listing (two entries):
SUPT5H isoform 2 (UniProt O00267)
inactive: [1] -0.225 | [2] 0.023 | [3] 0.073 | [4] -0.065

TACC3 (UniProt Q9Y6A5)
inactive: [1] 0.009 | [2] 0.008 | [3] -0.022 | [4] 0 | [5] -0.019

(cont.)

STRBP (UniProt Q96SI9)
inactive: [1] 0.003 | [2] -0.012 | [3] -0.007 | [4] 0.038 | [5] 0

— the supplement of paper PMC10849652
